Reference: PubChem BioAssay AID330 (DTP/NCI, 2004)
The list is a part of this screen's results and no random one: it is rich in T/C values a quarter to a half above the control, in often repeated tests (any T/C) and in doses without a T/C. Other doses and runs of a compound stand elsewhere. T/C is the treated group as % of the vehicle group. Some entries give survivors of the animals treated and no T/C: the source holds a T/C of zero for them, seemingly a mark for toxic or unscored doses. Some doses without a T/C left all or most animals alive at the check, yet need not have been tolerated: survival well below the control is almost never listed, so the zero probably covers shortened survival too. Survivors were counted at the toxicity check, usually on the fifth day, unless a day is given; later deaths do not show. Schedule codes are those of the source, taken here to give the interval after Q, in days (D) or hours (H), and the number of doses after X. For survival time, the PubChem record calls one and a half times the control and up active, and a quarter to a half above the control has no call in these data; cut-offs in other NCI protocols can differ. Signs of the kind (2×) stand for listed records that agree. Some entries hold several experiments; their values stand side by side, smallest first.

System: P388 leukemia ip, CD2F1 mice, survival T/C
Test: NCI In Vivo Anticancer Drug Screen. Data for tumor model P388 Leukemia (intraperitoneal) in CD2F1 (CDF1) mice
Settings: T/C endpoint: median survival time, higher T/C = longer survival
[1] = dose: 200.0 mg/kg/injection, schedule: Q01DX005 (ip), vehicle: saline
[2] = dose: 100.0 mg/kg/injection, schedule: Q01DX009 (ip), vehicle: Klucel (hydroxypropylcellulose) (HPC)
[3] = dose: 200.0 mg/kg/injection, schedule: Q01DX009 (ip), vehicle: Klucel (hydroxypropylcellulose) (HPC)
[4] = dose: 100.0 mg/kg/injection, schedule: Q01DX009 (ip), vehicle: saline with Tween-80
[5] = dose: 200.0 mg/kg/injection, schedule: Q01DX009 (ip), vehicle: saline with Tween-80
[6] = dose: 50.0 mg/kg/injection, schedule: Q01DX005 (ip), vehicle: saline
[7] = dose: 100.0 mg/kg/injection, schedule: Q01DX005 (ip), vehicle: saline
[8] = dose: 200.0 mg/kg/injection, schedule: Q01DX005 (ip), vehicle: saline with Tween-80
[9] = dose: 50.0 mg/kg/injection, schedule: Q01DX009 (ip), vehicle: saline

## S=C(/N=N/c1[nH]c2ccccc2c1NNC(=S)NC12CC3CC(CC(C3)C1)C2)NC12CC3CC(CC(C3)C1)C2
dose: 15.0 mg/kg/injection, schedule: Q01DX005 (ip), vehicle: saline with Tween-80
  survivor count: 6 of 6
dose: 60.0 mg/kg/injection, schedule: Q01DX005 (ip), vehicle: saline with Tween-80
  survivor count: 6 of 6

## CCC1CCC2CCOCN2C1 (stereo not drawn)
[1]
  survivor count: 2 of 6

## NC(=O)C1=C2NC(=O)c3ccccc3C2C2=C1CCCC2 (stereo not drawn)
dose: 100.0 mg/kg/injection, schedule: Q01DX005 (ip), vehicle: Klucel (hydroxypropylcellulose) (HPC)
  survivor count: 3 of 5
dose: 200.0 mg/kg/injection, schedule: Q01DX005 (ip), vehicle: Klucel (hydroxypropylcellulose) (HPC)
  survivor count: 0 of 5

## C[N+](C)(Cc1ccc(Br)cc1)C1c2ccccc2-c2ccccc21
[2]
  survivor count: 0 of 6
[3]
  survivor count: 0 of 6

## N#CC(O)COc1nsnc1N1CCOCC1 (stereo not drawn)
dose: 50.0 mg/kg/injection, schedule: Q01DX009 (ip), vehicle: Klucel (hydroxypropylcellulose) (HPC)
  survivor count: 2 of 6
[2]
  survivor count: 0 of 6
[3]
  survivor count: 0 of 6

## Nc1cc2c(c[n+](CCCCCCCCCC[n+]3cc4c5ccccc5c(N)cc4c4ccccc43)c3ccccc23)c2ccccc12
dose: 1.56 mg/kg/injection, schedule: Q04DX003 (ip), vehicle: other
  T/C: 127 % of control
dose: 3.13 mg/kg/injection, schedule: Q04DX003 (ip), vehicle: other
  T/C: 127 and 137 % of control
dose: 6.25 mg/kg/injection, schedule: Q04DX003 (ip), vehicle: other
  T/C: 137 and 148 % of control
dose: 12.5 mg/kg/injection, schedule: Q04DX003 (ip), vehicle: other
  T/C: 145 and 147 % of control
dose: 100.0 mg/kg/injection, schedule: Q04DX003 (ip), vehicle: other
  T/C: 148 % of control

## CCOc1ccc2nc3cc(N=Nc4ccc5c(N)c6cc(OCC)ccc6nc5c4)ccc3c(N)c2c1
dose: 50.0 mg/kg/injection, schedule: Q01DX009 (ip), vehicle: saline with Tween-80
  T/C: 128 % of control
[4]
  T/C: 135 % of control
[5]
  T/C: 129 % of control (2×)

## CC(=O)[C@]1(O)Cc2c(O)c3c(c(O)c2[C@@H](OC2CC(N)C(O)C(C)O2)C1)C(=O)c1c(OCC(C)C)cccc1C3=O (stereo partly drawn)
dose: 12.5 mg/kg/injection, schedule: Q04DX003 (ip), vehicle: water
  T/C: 128 % of control
dose: 25.0 mg/kg/injection, schedule: Q04DX003 (ip), vehicle: water
  T/C: 126 % of control

## Cc1cc2c(cc1C)C(=O)C(CN1CCCCC1)CO2 (stereo not drawn)
dose: 400.0 mg/kg/injection, schedule: Q01DX001 (ip), vehicle: saline
  survivor count: 0 of 6

## COc1ccc2nc3cc(Cl)ccc3c(NCCCCN3CCCC3)c2n1
dose: 50.0 mg/kg/injection, schedule: Q01DX009 (ip), vehicle: water
  survivor count: 4 of 6
dose: 100.0 mg/kg/injection, schedule: Q01DX009 (ip), vehicle: water
  survivor count: 1 of 6
dose: 200.0 mg/kg/injection, schedule: Q01DX009 (ip), vehicle: water
  survivor count: 1 of 6

## COC1CCCC=C1[N+](=O)[O-] (stereo not drawn)
[6]
  survivor count: 0 of 6
[7]
  survivor count: 0 of 6
[1]
  survivor count: 0 of 6

## O=C(C/C(=N\C(=S)Nc1cc(C(F)(F)F)ccc1Cl)NO)N1CCCC1
[4]
  T/C: 134 % of control
[5]
  T/C: 128 % of control

## CCC1SC(=S)NC1=O (stereo not drawn)
[8]
  survivor count: 3 of 5

## O=[N+]([O-])c1ccc(/C(=C\c2ccc(-c3ccccc3)o2)S(=O)(=O)c2ccccc2)o1
[9]
  survivor count: 5 of 6
dose: 50.0 mg/kg/injection, schedule: Q01DX009 (ip), vehicle: suspension in saline
  survivor count: 5 of 6
dose: 100.0 mg/kg/injection, schedule: Q01DX009 (ip), vehicle: suspension in saline
  survivor count: 5 of 6
dose: 200.0 mg/kg/injection, schedule: Q01DX009 (ip), vehicle: suspension in saline
  survivor count: 6 of 6

## CCOC(=O)Nc1cc(OC)cc2ccc(C)nc12
dose: 25.0 mg/kg/injection, schedule: Q01DX009 (ip), vehicle: other
  survivor count: 6 of 6

## CC(=O)N1C(=O)C2C3C=CC(C3)C2C(=O)N1C(C)=O (stereo not drawn)
[4]
  survivor count: 6 of 6
[5]
  survivor count: 4 of 6
dose: 400.0 mg/kg/injection, schedule: Q01DX009 (ip), vehicle: saline with Tween-80
  survivor count: 1 of 6

## CN1CCC/C1=N\C(=Nc1ccccc1)N1CCCC1
[6]
  survivor count: 0 of 6
[7]
  survivor count: 0 of 6
[1]
  survivor count: 0 of 6

## CC(O)C([NH-])C(=O)O.CC([NH-])C(=O)O.[Cu+2] (stereo not drawn)
[9]
  survivor count: 0 of 6
dose: 100.0 mg/kg/injection, schedule: Q01DX009 (ip), vehicle: saline
  survivor count: 0 of 6
dose: 200.0 mg/kg/injection, schedule: Q01DX009 (ip), vehicle: saline
  survivor count: 0 of 6

## Cc1cc(C)c(S(=O)(=O)O)c(C)c1Nc1ccc(Nc2c(C)cc(C)c(S(=O)(=O)O)c2C)c2c1C(=O)c1ccccc1C2=O
[5]
  survivor count: 3 of 6

## c1cc[n+]2cc3c(ccc4cc5cccc[n+]5cc43)cc2c1
dose: 50.0 mg/kg/injection, schedule: Q01DX005 (ip), vehicle: saline with Tween-80
  survivor count: 0 of 5
dose: 100.0 mg/kg/injection, schedule: Q01DX005 (ip), vehicle: saline with Tween-80
  survivor count: 0 of 5
[8]
  survivor count: 0 of 5

## CCOC(=O)C1=C(C)O/C(=C\c2cccc(C(F)(F)F)c2)C1=O
[8]
  survivor count: 1 of 6

## CN(C)c1ccc(-c2nnc3c(c(=O)n(C)c(=O)n3C)[n+]2[O-])cc1
dose: 200.0 mg/kg/injection, schedule: Q01DX001 (ip), vehicle: Klucel (hydroxypropylcellulose) (HPC)
  survivor count: 3 of 6
dose: 400.0 mg/kg/injection, schedule: Q01DX001 (ip), vehicle: Klucel (hydroxypropylcellulose) (HPC)
  survivor count: 4 of 6

## O=C1NC(CN2CCCCC2)C(=O)NC1CN1CCCCC1 (stereo not drawn)
dose: 240.0 mg/kg/injection, schedule: Q01DX005 (ip), vehicle: Klucel (hydroxypropylcellulose) (HPC)
  survivor count: 6 of 6

## Cc1cn(CC2C=CC(CS[As](C)C)O2)c(=O)[nH]c1=O (stereo not drawn)
dose: 200.0 mg/kg/injection, schedule: Q01DX009 (ip), vehicle: distilled water + Tween-80
  survivor count: 2 of 6
